Experimental data reported in PubChem BioAssay AID1487 (National Center for Advancing Translational Sciences (NCATS), 2009).
This is one part of the list. These are further read-outs of the screen, such as a control signal, another cell line or another target. No call is given for them. Most of these compounds were active or inconclusive in the main read-out, so they are no random draw. Potencies come from curve fits of mixed quality, noted in brackets.

Assay: qHTS Assay for Modulators of Lamin A Splicing
Details: HeLa LMNA splicing GFP/RFP minigene ratio, 48 h
In short: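 Read-out is the ratio of GFP to DsRed2 object intensity, acquired by 488 nm laser-scanning cytometry on HeLa lamin A-EGFP minigene reporter cells. Compound incubation 48 hrs at 37 °C in Opti-MEM with 2% FBS; DMSO 0.5% final.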

[1] = measured here: GFP splicing reporter channel
[2] = measured here: RFP viability control channel

| SMILES | AC50 [1] | AC50 [2] |
| --- | --- | --- |
| [O]=[Bi][O]C(=O)[O][Bi]=[O] | 35.5 µM [falling, single point] | – |
| CN(C)C(/C=C/Nc1ccc([N+](=O)[O-])cc1)=C(C#N)C#N | 0.0708 µM [falling, full curve, poor fit] | 0.0141 µM [falling, full curve, poor fit] |
| COc1cccc(C(=O)NCC(c2ccc3c(c2)OCO3)N2CCOCC2)c1 (configuration not stated) | 0.0224 µM [rising, full curve, poor fit] | – |
| Cc1ccccc1OCCCCc1c(C)n[nH]c1C | – | 5.62 µM [rising, full curve] |
| O=C(OCc1cccc([N+](=O)[O-])c1)c1cc(=O)[nH]c2ccccc12 | 0.00447 µM [rising, full curve, poor fit] | 0.0141 µM [rising, full curve, poor fit] |
| N#Cc1cc(Br)ccc1N=C1CCCN1c1ccccc1 | 15.8 µM [rising, single point] | 20 µM [rising, single point] |
| CCCCCCC(=O)NNC(=O)c1c(O)c2ccccc2n(CC)c1=O | 35.5 µM [rising, single point] | 31.6 µM [rising, single point] |
| S=C(NCC1CCCO1)N1CCN(c2nc(-c3ccccc3)cs2)CC1 (configuration not stated) | 10 µM [falling, partial curve, poor fit] | 15.8 µM [falling, partial curve, poor fit] |
| C[N+](C)(CCCCCC[N+](C)(C)CCCN1C(=O)c2cccc3cccc(c23)C1=O)CCCN1C(=O)c2cccc3cccc(c23)C1=O | 0.00316 µM [falling, full curve, poor fit] | – |
| CC(C)C1CC(CCN2CCCCC2)(c2ccccc2)CCO1 (configuration not stated) | – | 0.0562 µM [falling, full curve] |
| CN1CCN(C(=O)c2ccc3c(=O)n(Cc4ccc(Cl)cc4)c(=S)[nH]c3c2)CC1 | 17.8 µM [rising, single point] | 35.5 µM [rising, single point] |
| O=C1c2ccccc2C(Nc2ccc3c(c2)OCO3)N1Cc1ccc2c(c1)OCO2 (configuration not stated) | 12.6 µM [rising, single point] | 22.4 µM [rising, single point] |
| COc1ccccc1-c1cc(C(=O)Nc2cc(C)nn2-c2ccccc2)no1 | – | 3.55 µM [rising, single point] |
| Cn1nc(-c2ccc(Cl)cc2)c2cc(C(=O)NCc3ccco3)sc21 | – | 22.4 µM [rising, single point] |
| O=C(Nc1cccc(C(F)(F)F)c1)c1cc(-c2ccc3c(c2)OCCO3)on1 | 35.5 µM [falling, partial curve] | 35.5 µM [falling, partial curve, poor fit] |
| CCc1ccccc1NC(=O)c1ccc2nc(C(C)C)oc2c1 | – | 1.78 µM [falling, partial curve, poor fit] |
| COc1cc(/C=C/c2cc(C(=O)O)c3ccccc3n2)cc(OC)c1O | 3.16 µM [rising, full curve] | – |
| Cn1c(SCC(=O)NCC2CCCO2)nnc1-c1ccc(S(=O)(=O)N2CCCC2)cc1 (configuration not stated) | – | 3.98 µM [falling, single point] |
| COc1ccc(Nc2oc(-c3ccccc3Cl)nc2C#N)cc1 | – | 15.8 µM [rising, partial curve] |
| CCn1c(Sc2nc(C)nc3scc(-c4cccs4)c23)n[nH]c1=O | – | 17.8 µM [rising, partial curve] |
| C/C(=N\Nc1ncc(Cl)cc1Cl)c1ccc(S(=O)(=O)NCc2ccco2)cc1 | 35.5 µM [rising, single point] | 35.5 µM [rising, single point] |
| CCNC(=S)N=Nc1c(O)[nH]c2ccc(C(C)C)cc12 | – | 31.6 µM [rising, single point] |
| CCc1nnc(NC(=O)CCC(=O)N2CCN(C3CCCCC3)CC2)s1 | – | 2.82 µM [rising, full curve, poor fit] |
| CCOC(=O)c1nn(-c2ccccc2)c(=O)cc1SC(C)C | 35.5 µM [rising, single point] | – |
| Cc1ccsc1-c1nc(C(N)=O)c2[nH]c(=O)n(-c3ccc(Cl)cc3)c2n1 | – | 0.112 µM [rising, full curve, poor fit] |
| COC(=O)c1cn(CCOc2ccc(C)cc2)c2ccccc12 | – | 12.6 µM [rising, single point] |
| CC(=O)Nc1ccc(Oc2sc(C(=O)c3ccccc3)c(N)c2C#N)cc1 | 15.8 µM [falling, partial curve] | 35.5 µM [falling, single point] |

One compound at a time, as listed above. Values in the order: AC50 [1]	AC50 [2]
Cn1c(SCC(=O)NCC2CCCO2)nnc1-c1ccc(S(=O)(=O)N2CCCC2)cc1 (configuration not stated) is entered as –	3.98 µM [falling, single point]
O=C(OCc1cccc([N+](=O)[O-])c1)c1cc(=O)[nH]c2ccccc12 is entered as 0.00447 µM [rising, full curve, poor fit]	0.0141 µM [rising, full curve, poor fit]
